Assay results: patent publication US20240294670A1
These are yes or no findings as the source states them, for the method shown. Some entries that bind do so weakly or less than the wild type.

Amino acid sequences for entries named in this document (tags omitted). Residues count along the entry.
UniProt P36222, residues 22-383: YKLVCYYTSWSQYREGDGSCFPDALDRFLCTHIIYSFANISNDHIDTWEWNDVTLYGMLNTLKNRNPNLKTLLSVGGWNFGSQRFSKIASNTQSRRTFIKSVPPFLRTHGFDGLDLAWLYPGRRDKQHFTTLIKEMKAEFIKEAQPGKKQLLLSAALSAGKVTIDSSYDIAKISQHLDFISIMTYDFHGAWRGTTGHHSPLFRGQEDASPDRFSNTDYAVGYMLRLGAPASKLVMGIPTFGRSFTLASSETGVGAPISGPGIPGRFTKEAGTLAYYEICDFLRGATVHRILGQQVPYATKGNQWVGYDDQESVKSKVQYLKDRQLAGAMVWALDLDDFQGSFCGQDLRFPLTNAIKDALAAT

Molecular target: recombinant human CHI3L1 (human) (UniProt P36222)
Assay: Bio-Layer Interferometry

B1: humanized C7 antibody C7Hu (antibody, V domains shown)
VH: QVQLVESGGGVVQPGRSLRLSCAASGFTLTTYWVCWVRQAPGKGLEWVACIDAGSITYYTTWARGRFTISRDNSTNTLFLQMNSLRAEDTAVYYCARDAHYTYALVLWGRGTLVTVSS
VL: DIQMTQSPSSVSASVGDRVTIKCQASEDIESYLAWYQQKPGKAPKLLIYDASDLASGVPSRFSGSGSGTDFTLTISSLQPEDAATYYCQGYSYGSSYVGFGGGTKVEIK
binding: binds
